Taken from: PubChem BioAssay AID652259 (Drosophila RNAi Screening Center, 2013)

- Test: 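Knock-downs that push a Wingless-driven reporter up or down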 (primary screen)
- System: Drosophila clone 8 imaginal disc epithelial cells
- Reagent: long dsRNA against Drosophila genes
- Conditions: pathway stimulated by co-transfected Wingless expression plasmid
- Detection: 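Firefly luciferase from a tcf-site Wingless reporter, measured alongside co-transfected Renilla luciferase that tracks transfection; pathway stimulated by a Wingless plasmid; the firefly-to-Renilla ratio is not deposited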
- Scale: firefly reporter light: higher = more Wg reporter light, before normalisation; Renilla control light: higher = more transfected or surviving cells
- Call rule: 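a knock-down is a candidate when at least two out of four statistical tests show it departing from its plate mean; one test alone signals a weak candidate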
- Calls: active = candidate regulator (raises or lowers reporter); inactive = not a candidate
The screen tested about 22,000 reagents; this is an unselected part of those that have a named target and a result. Over the whole deposit, 233 (1.1%) are marked active. 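Light values are raw, unnormalised plate reads; the ratio scores behind the reporter calls were not deposited.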 Reagents against one gene are numbered here. A plus sign joins genes that one reagent is predicted to hit. The record does not give: the amount of reagent, the time to read-out, the dose of the treatment.

gene | reagent | firefly reporter light, replicate 1 | firefly reporter light, replicate 2 | Renilla control light, replicate 1 | Renilla control light, replicate 2 | Call
Arf6 (ADP ribosylation factor 6) | 1 | 7301 | – | 2312 | – | inactive
CG31675 | 1 | 24256 | – | 12264 | – | inactive
dmrt93B (doublesex-Mab related 93B) | 1 | 13941 | – | 3221 | – | inactive
Obp59a (Odorant-binding protein 59a) | 1 | 3043 | 6832 | 840 | 2706 | inactive
mael (maelstrom) | 1 | 7249 | – | 2614 | – | inactive
Mvd (Mevalonate diphosphate decarboxylase) | 1 | 1400 | 5845 | 714 | 1552 | inactive
gek (genghis khan) | 1 | 9756 | – | 3211 | – | inactive
CG13133 | 1 | 1943 | 9916 | 1184 | 4342 | inactive
Rab7 | 1 | 2707 | 6789 | 1125 | 2001 | inactive
CG32756 | 1 | 3.91e5 | 4.98e5 | 99736 | 1.15e5 | inactive
CG15891 + CG15892 | 1 | 5418 | 16451 | 1026 | 2464 | inactive
CG15891 + CG15892 | 2 | 16749 | – | 9488 | – | inactive
CG33639 | 1 | 27592 | – | 12217 | – | inactive
CG33639 | 2 | 5.11e5 | 5.32e5 | 1.50e5 | 1.76e5 | inactive
RpS12 (Ribosomal protein S12) | 1 | 4404 | – | 3266 | – | inactive
a6 | 1 | 2569 | 5891 | 1296 | 2737 | inactive
CG32225 | 1 | 2572 | – | 1431 | – | inactive
CG10064 | 1 | 1705 | 9658 | 1324 | 3497 | inactive
Vm34Ca (Vitelline membrane 34Ca) | 1 | 3772 | 7872 | 1354 | 1906 | inactive
Gasz | 1 | 7842 | – | 2461 | – | inactive
CheB53a (Chemosensory protein B 53a) | 1 | 5026 | – | 1878 | – | inactive
CG5644 | 1 | 1625 | 6209 | 933 | 2364 | inactive
Spn42Da (Serpin 42Da) | 1 | 1831 | 6423 | 131 | 3557 | inactive
baf (barrier to autointegration factor) | 1 | 7091 | 13063 | 1237 | 3200 | inactive
CG15717 | 1 | 26061 | – | 14034 | – | inactive
CCAP (Crustacean cardioactive peptide) | 1 | 16845 | – | 9929 | – | inactive
MrgBP (MRG/MORF4L binding protein) | 1 | 3172 | 5488 | 571 | 2016 | inactive
NPFR (Neuropeptide F receptor) | 1 | 11147 | – | 3312 | – | inactive
SNF4Agamma (SNF4/AMP-activated protein kinase gamma subunit) | 1 | 3049 | – | 1345 | – | inactive
SNF4Agamma (SNF4/AMP-activated protein kinase gamma subunit) | 2 | 4432 | 7.74e5 | 2217 | 4.00e5 | inactive
SNF4Agamma (SNF4/AMP-activated protein kinase gamma subunit) | 3 | 23736 | – | 5769 | – | inactive
SNF4Agamma (SNF4/AMP-activated protein kinase gamma subunit) | 4 | 2422 | 3810 | 724 | 1498 | inactive
pie (pineapple eye) | 1 | 6320 | – | 1303 | – | inactive
Dr (Drop) | 1 | 5384 | 9461 | 2192 | 3575 | inactive
Dr (Drop) | 2 | 4.93e5 | 5.45e5 | 69121 | 22857 | inactive
Sol1 | 1 | 13266 | – | 3605 | – | inactive
Sol1 | 2 | 12283 | – | 3513 | – | inactive
Sol1 | 3 | 11559 | – | 3702 | – | inactive
St2 (Sulfotransferase 2) | 1 | 18812 | – | 5808 | – | inactive
St2 (Sulfotransferase 2) | 2 | 6.15e5 | 6.43e5 | 2.31e5 | 2.22e5 | inactive
CG17618 (retired record) + CG45049 | 1 | 23312 | – | 18571 | – | inactive
CG17618 (retired record) + CG45049 | 2 | 3.28e5 | 3.94e5 | 51294 | 62118 | inactive
BobA | 1 | 7597 | – | 2832 | – | inactive
CG3097 | 1 | 22989 | – | 10621 | – | inactive
CG12926 | 1 | 3660 | 12000 | 1344 | 4182 | inactive
CG12926 | 2 | 3.68e5 | 3.86e5 | 1.65e5 | 1.60e5 | inactive
CG9406 | 1 | 2981 | 9351 | 660 | 4192 | inactive
Grl36b (Gustatory receptor-like 36b) | 1 | 19876 | – | 8835 | – | inactive
CG14054 | 1 | 10848 | – | 8387 | – | inactive
Exd2 (Exonuclease 3'-5' domain-containing 2) | 1 | 11350 | – | 2163 | – | inactive
garz (gartenzwerg) | 1 | 5227 | – | 2055 | – | inactive
CG5107 | 1 | 2163 | 4921 | 736 | 1740 | inactive
CG14380 | 1 | 15120 | – | 1904 | – | inactive
CG8405 | 1 | 19904 | – | 7328 | – | inactive
CG8405 | 2 | 8521 | – | 2081 | – | inactive
Flad2 (Flavin adenine dinucleotide synthetase 2) | 1 | 2536 | 7861 | 1027 | 2909 | inactive
tyn (trynity) | 1 | 15515 | – | 11128 | – | inactive
ATbp ((A+T)-stretch binding protein) | 1 | 22053 | – | 6481 | – | inactive
CG17598 | 1 | 2354 | 8012 | 977 | 2331 | inactive
CG9593 | 1 | 12307 | – | 2356 | – | inactive
Swip-1 (Swiprosin-1) | 1 | 12049 | – | 1533 | – | inactive
Swip-1 (Swiprosin-1) | 2 | 2685 | 11298 | 738 | 3850 | inactive
CG44000 + CG33995 + CG44001 | 1 | 22502 | – | 10496 | – | inactive
CG44000 + CG33995 + CG44001 | 2 | 16393 | – | 8212 | – | inactive
CG11638 | 1 | 19596 | – | 11920 | – | inactive
CG11638 | 2 | 20236 | – | 14368 | – | inactive
CG13920 | 1 | 17552 | – | 5056 | – | inactive
parvin | 1 | 18801 | – | 9288 | – | inactive
CG4768 | 1 | 3699 | 9016 | 1363 | 2752 | inactive
CG14817 | 1 | 17346 | – | 12432 | – | inactive
topi (matotopetli) | 1 | 24951 | – | 3563 | – | inactive
beta4GalT7 (beta-4-galactosyltransferase 7) | 1 | 17664 | – | 15216 | – | inactive
sowah (sosondowah) | 1 | 3444 | – | 1482 | – | inactive
sowah (sosondowah) | 2 | 4039 | – | 1795 | – | inactive
CG15375 | 1 | 27245 | – | 13733 | – | inactive
CG13693 | 1 | 3341 | 7352 | 1586 | 3717 | inactive
PLCXD | 1 | 2100 | 4130 | 1031 | 1957 | inactive
Mst77F (Male-specific transcript 77F) | 1 | 15683 | – | 5970 | – | inactive
bin (biniou) | 1 | 2176 | 5729 | 1637 | 2037 | inactive
CG16852 | 1 | 2112 | 7568 | 1148 | 2642 | inactive
CG12375 | 1 | 10516 | – | 3954 | – | inactive
CG8993 | 1 | 3248 | – | 2192 | – | inactive
CG31698 | 1 | 8.25e5 | 7.36e5 | 3.78e5 | 3.39e5 | inactive
mtTFB2 (mitochondrial transcription factor B2) | 1 | 12856 | – | 2736 | – | inactive
CG3793 | 1 | 8988 | – | 2725 | – | inactive
Listericin | 1 | 9616 | – | 3648 | – | inactive
Vps28 (Vacuolar protein sorting 28) | 1 | 10620 | – | 1811 | – | inactive
ck (crinkled) | 1 | 7691 | – | 1062 | – | inactive
TM9SF4 (Transmembrane 9 superfamily protein member 4) | 1 | 10609 | – | 3510 | – | inactive
CG11808 | 1 | 15353 | – | 2885 | – | inactive
GM130 (Golgi matrix protein 130 kD) | 1 | 10913 | – | 2912 | – | inactive
CG30411 | 1 | 13245 | – | 7200 | – | inactive
hng3 (hinge3) | 1 | 7321 | – | 3158 | – | inactive

Part of the list above, set out differently:
gene,reagent,"firefly reporter light, replicate 1","firefly reporter light, replicate 2","Renilla control light, replicate 1","Renilla control light, replicate 2",Call
CG12926,1,3660,12000,1344,4182,inactive
CG12926,2,3.68e5,3.86e5,1.65e5,1.60e5,inactive
CG9406,1,2981,9351,660,4192,inactive
Grl36b (Gustatory receptor-like 36b),1,19876,,8835,,inactive
CG14054,1,10848,,8387,,inactive
Exd2 (Exonuclease 3'-5' domain-containing 2),1,11350,,2163,,inactive
garz (gartenzwerg),1,5227,,2055,,inactive
CG5107,1,2163,4921,736,1740,inactive
CG14380,1,15120,,1904,,inactive
CG8405,1,19904,,7328,,inactive
CG8405,2,8521,,2081,,inactive
